Measurements as given in US20230374534A1.
Results are given in words; binding and its absence hold for the method and conditions named. Binding seen in cells or lysates may run through a third protein. Some results given as binding are weak or reduced against the parent protein; the word gives no strength.

The chains behind the UniProt entries cited, without tags or fusion partners. Where a name states a change or a piece, a line headed by the entry shows the natural chain unless it says otherwise.
UniProt Q9M0L0: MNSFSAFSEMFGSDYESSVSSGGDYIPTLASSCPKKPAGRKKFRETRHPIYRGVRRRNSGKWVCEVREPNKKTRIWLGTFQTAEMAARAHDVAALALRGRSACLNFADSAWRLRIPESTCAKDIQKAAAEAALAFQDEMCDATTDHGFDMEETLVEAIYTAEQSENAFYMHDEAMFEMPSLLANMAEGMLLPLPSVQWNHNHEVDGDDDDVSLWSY
UniProt Q9SYS6: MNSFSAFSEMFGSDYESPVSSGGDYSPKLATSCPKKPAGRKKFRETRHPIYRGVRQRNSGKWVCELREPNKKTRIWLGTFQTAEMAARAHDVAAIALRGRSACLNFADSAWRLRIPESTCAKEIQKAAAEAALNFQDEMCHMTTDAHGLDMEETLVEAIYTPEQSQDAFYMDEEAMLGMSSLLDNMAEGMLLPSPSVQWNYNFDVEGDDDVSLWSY
UniProt P93835: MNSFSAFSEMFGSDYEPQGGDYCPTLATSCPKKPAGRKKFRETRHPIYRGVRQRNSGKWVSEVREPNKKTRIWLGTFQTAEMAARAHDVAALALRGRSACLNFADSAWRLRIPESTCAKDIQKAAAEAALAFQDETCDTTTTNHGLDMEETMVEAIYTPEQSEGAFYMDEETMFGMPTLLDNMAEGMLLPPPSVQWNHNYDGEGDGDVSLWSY

Assays:
[1] = target: CBF3-Myc (from CBF-Myc^OE Arabidopsis plants) (Arabidopsis thaliana) (UniProt Q9M0L0); assay: Co-IP with anti-Myc agarose from CBF-Myc^OE plants, Trx-h2 detected with anti-Trx-h2 antibody (FIG. 1C)
[2] = target: CBF2-Myc (from CBF-Myc^OE Arabidopsis plants) (Arabidopsis thaliana) (UniProt Q9SYS6); assay: as above
[3] = target: His-CBF1 (histidine-tagged C-repeat-binding transcription factor 1), recombinant (Arabidopsis thaliana) (UniProt P93835); assay: in vitro pull-down, purified recombinant Trx-h2 and His-tagged CBFs, western blot (FIG. 1B)
[4] = target: His-CBF3 (histidine-tagged C-repeat-binding factor 3), recombinant (Arabidopsis thaliana) (UniProt Q9M0L0); assay: as above
[5] = target: His-CBF2 (histidine-tagged C-repeat-binding factor 2), recombinant (Arabidopsis thaliana) (UniProt Q9SYS6); assay: as above
[6] = target: His-CBF1 (histidine-tagged C-repeat-binding transcription factor 1), recombinant (Arabidopsis thaliana) (UniProt P93835); assay: summary of the pull-down, Co-IP and BiFC assays; no affinity value printed
[7] = target: His-CBF3 (histidine-tagged C-repeat-binding factor 3), recombinant (Arabidopsis thaliana) (UniProt Q9M0L0); assay: as above
[8] = target: His-CBF2 (histidine-tagged C-repeat-binding factor 2), recombinant (Arabidopsis thaliana) (UniProt Q9SYS6); assay: as above

Measured: binding

B1: Trx-h2, endogenous protein in Arabidopsis plants (enzyme)
chain: GGALSTVFGSGEDATAAGTESEPSRVLKFSSSARWQLHFNEIKESNKLLVVDFSASWCGPCRMIEPAIHAMADKFNDVDFVKLDVDELPDVAKEFNVTAMPTFVLVKRGKEIERIIGAKKDELEKKVSKLRA
modifications: myristoylated at Gly2 at 22 °C; demyristoylated at 4 °C
binds: [1] | [2]

B2: Thioredoxin h2 (Trx-h2), purified recombinant protein (enzyme)
chain: MGGALSTVFGSGEDATAAGTESEPSRVLKFSSSARWQLHFNEIKESNKLLVVDFSASWCGPCRMIEPAIHAMADKFNDVDFVKLDVDELPDVAKEFNVTAMPTFVLVKRGKEIERIIGAKKDELEKKVSKLRA
not listed: [1] | [2]
binds: all other assays above
